These are yes or no findings as the source states them, for the method shown. Binding seen in cells or lysates may run through a third protein. Some binding calls cover weakened binding; strength is not graded here.

Chains of the proteins cited; added tags and fusions are not shown.
UniProt O15078: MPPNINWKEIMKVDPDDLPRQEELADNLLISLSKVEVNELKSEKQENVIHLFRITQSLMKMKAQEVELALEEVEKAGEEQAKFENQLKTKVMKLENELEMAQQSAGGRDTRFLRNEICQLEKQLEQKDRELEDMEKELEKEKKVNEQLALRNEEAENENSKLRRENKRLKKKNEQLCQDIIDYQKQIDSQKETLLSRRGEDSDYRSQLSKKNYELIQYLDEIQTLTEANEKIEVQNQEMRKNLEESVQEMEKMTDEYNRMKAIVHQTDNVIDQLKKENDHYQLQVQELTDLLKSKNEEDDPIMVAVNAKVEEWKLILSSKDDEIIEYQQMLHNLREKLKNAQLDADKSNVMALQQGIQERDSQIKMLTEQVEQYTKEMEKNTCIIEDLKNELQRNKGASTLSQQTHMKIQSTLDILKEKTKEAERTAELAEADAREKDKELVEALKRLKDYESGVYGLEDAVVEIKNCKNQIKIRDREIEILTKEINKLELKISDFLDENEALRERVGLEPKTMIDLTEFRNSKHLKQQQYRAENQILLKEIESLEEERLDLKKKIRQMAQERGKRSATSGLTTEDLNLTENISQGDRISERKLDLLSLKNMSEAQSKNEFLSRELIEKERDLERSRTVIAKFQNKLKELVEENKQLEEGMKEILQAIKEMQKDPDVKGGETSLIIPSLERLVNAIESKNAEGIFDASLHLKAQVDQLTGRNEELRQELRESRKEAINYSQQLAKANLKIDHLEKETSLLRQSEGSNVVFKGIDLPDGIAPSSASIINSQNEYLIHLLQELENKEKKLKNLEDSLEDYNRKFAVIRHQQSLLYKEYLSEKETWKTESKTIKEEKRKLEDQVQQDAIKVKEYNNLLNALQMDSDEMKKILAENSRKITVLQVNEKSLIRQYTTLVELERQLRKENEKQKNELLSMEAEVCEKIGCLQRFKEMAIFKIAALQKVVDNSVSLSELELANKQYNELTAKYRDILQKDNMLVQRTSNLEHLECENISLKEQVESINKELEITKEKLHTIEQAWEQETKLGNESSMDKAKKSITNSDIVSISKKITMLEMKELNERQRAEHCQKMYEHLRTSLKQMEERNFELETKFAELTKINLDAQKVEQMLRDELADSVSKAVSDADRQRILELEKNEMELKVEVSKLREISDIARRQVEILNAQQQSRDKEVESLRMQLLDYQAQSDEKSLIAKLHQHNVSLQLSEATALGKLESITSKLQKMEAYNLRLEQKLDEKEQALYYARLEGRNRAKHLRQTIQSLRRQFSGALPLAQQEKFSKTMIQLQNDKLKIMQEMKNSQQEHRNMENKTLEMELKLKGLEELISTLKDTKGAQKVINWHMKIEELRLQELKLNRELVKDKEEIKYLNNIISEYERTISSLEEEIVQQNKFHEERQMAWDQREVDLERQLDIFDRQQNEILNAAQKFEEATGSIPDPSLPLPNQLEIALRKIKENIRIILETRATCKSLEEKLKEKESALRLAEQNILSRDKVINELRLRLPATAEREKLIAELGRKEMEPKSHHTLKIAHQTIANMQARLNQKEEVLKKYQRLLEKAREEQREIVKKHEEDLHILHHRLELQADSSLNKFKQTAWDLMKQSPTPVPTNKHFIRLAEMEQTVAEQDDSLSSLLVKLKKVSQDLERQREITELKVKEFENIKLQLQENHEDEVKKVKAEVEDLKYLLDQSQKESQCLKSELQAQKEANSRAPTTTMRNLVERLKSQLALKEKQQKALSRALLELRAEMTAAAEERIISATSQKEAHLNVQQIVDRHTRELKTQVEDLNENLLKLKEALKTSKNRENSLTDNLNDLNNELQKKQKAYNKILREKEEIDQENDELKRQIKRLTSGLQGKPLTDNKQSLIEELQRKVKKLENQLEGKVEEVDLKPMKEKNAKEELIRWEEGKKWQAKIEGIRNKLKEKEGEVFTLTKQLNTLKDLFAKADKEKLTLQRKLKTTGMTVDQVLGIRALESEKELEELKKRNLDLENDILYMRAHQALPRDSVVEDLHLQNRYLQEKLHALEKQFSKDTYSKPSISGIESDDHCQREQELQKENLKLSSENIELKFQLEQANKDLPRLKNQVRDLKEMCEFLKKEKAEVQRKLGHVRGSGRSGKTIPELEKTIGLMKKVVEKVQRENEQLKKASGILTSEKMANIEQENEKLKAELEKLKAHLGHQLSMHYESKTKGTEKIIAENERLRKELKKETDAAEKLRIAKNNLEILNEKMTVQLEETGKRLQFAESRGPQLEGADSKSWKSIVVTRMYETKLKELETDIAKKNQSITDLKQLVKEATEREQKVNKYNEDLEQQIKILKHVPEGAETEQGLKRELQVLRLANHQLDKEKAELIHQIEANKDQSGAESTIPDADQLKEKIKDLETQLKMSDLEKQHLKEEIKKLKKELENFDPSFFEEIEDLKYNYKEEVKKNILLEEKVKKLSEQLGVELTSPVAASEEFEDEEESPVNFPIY

The target in this assay is centrosomal protein 290 (human (endogenous in Hep3B)) (UniProt O15078). The assay is described as follows: co-IP; CoIP in Hep3B cells, with Hep3B CEP290-/- (CRISPR knockout) cells generated for the CoIP experiments; detection by WB; which protein was precipitated is not told.

B1: Nrf2 (protein, UniProt Q16236 1-605)
chain: MMDLELPPPGLPSQQDMDLIDILWRQDIDLGVSREVFDFSQRRKEYELEKQKKLEKERQEQLQKEQEKAFFAQLQLDEETGEFLPIQPAQHIQSETSGSANYSQVAHIPKSDALYFDDCMQLLAQTFPFVDDNEVSSATFQSLVPDIPGHIESPVFIATNQAQSPETSVAQVAPVDLDGMQQDIEQVWEELLSIPELQCLNIENDKLVETTMVPSPEAKLTEVDNYHFYSSIPSMEKEVGNCSPHFLNAFEDSFSSILSTEDPNQLTVNSLNSDATVNTDFGDEFYSAFIAEPSISNSMPSPATLSHSLSELLNGPIDVSDLSLCKAFNQNHPESTAEFNDSDSGISLNTSPSVASPEHSVESSSYGDTLLGLSDSEVEELDSAPGSVKQNGPKTPVHSSGDMVQPLSPSQGQSTHVHDAQCENTPEKELPVSPGHRKTPFTKDKHSSRLEAHLTRDELRAKALHIPFPVEKIINLPVVDFNEMMSKEQFNEAQLALIRDIRRRGKNKVAAQNCRKRKLENIVELEQDLDHLKDEKEKLLKEKGENDKSLHLLKKQLSTLYLEVFSMLRDEDGKPYSPSEYSLQQTRDGNVFLVPKSKKPDVKKN
For the molecule B1, the binding result was “binds”.

Source of the values: publication PMC8954978.
